PubChem BioAssay AID1259279 | Sanger Institute | 2017

Aim: 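Find kinases whose loss works with colorectal cancer drugs to kill cells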 (primary screen)
Cells: LS180 human colorectal cancer cells
Knock-down reagent: siRNA pool against human genes
Challenge: anchor drug BYL719 at 1 µM, cetuximab at 5 µg/ml or trametinib at 10 nM, or DMSO vehicle only
Measurement: 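Cell viability versus a non-targeting pool, as a fraction and as a robust z-score from replicate means, plus a synergy score for each of three drugs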
Reading the numbers: viability z-score, no drug: higher = more viable cells after knock-down; viability, no drug: higher = more viable cells; synergy score with BYL719 and synergy score with cetuximab and synergy score with trametinib: higher = stronger synthetic lethal synergy with drug
Active means: 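a knock-down is called active, meaning essential, if its viability z-score in vehicle alone falls below -3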
Calls: active = essential (knock-down alone cuts viability); inactive = no change without drug
The deposit covers 794 reagents; shown is a part drawn at random. 11 of them (1.4%) count as active. 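Calls reflect knock-down alone in the vehicle arm, not drug synergy.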 Entries without a mark were called inactive. No viability above 1 is reported: the scale is capped. Not given: the amount of reagent, the time to read-out.

target gene,"viability z-score, no drug","viability, no drug (fraction)",synergy score with BYL719,synergy score with cetuximab,synergy score with trametinib
PTK6,0.0611,0.913,-0.157,-0.0286,0.0223
FCSK,0.438,0.954,-0.0127,0.0225,0.0475
CDKN1C,0.0102,0.907,-0.014,0.0285,0.0861
CDKN2B,0.86,1,-0.102,-0.146,0.0099
CDK3,0.86,1,-0.169,0.0672,-0.0286
EPHA8,0.206,0.929,-0.000126,-0.0442,0.0856
MED12,0.0704,0.914,-0.108,-0.141,-0.0816
MAP2K1,0.86,1,-0.042,-0.00861,0.0711
PLK4,-0.85,0.813,-0.0311,-0.00642,0.173
TEX14,0.86,1,0.0402,-0.0111,-0.0532
KMT2B,-0.282,0.875,-0.134,-0.0261,-0.0685
HK3,-0.494,0.852,-0.319,-0.136,-0.114
NADK,0.425,0.953,0.0579,0.0825,-0.0107
MYLK4,-0.936,0.804,-0.18,-0.138,-0.0769
NME5,0.86,1,-0.0501,-0.1,-0.118
ARAF,0.86,1,-0.0229,-0.0593,-0.0794
TPK1,0.153,0.923,-0.0899,-0.0815,0.0707
MPP1,0.86,1,-0.0903,0.0831,0.0562
NRBP2,0.86,1,0.0285,0.0792,0.137
CIT,-1.49,0.744,0.0129,-0.0653,0.0573
PKLR,0.86,1,-0.201,-0.0503,0.177
CSNK1A1L,0.156,0.923,-0.115,-0.0603,0.0105
PIK3R5,-0.177,0.887,-0.00361,-0.147,0.161
SPEG,0.86,1,-0.159,-0.156,-0.0383
HIPK4,0.86,1,-0.122,-0.166,-0.104
RFK,0.191,0.927,-0.066,-0.0969,-0.265
AKAP9,0.86,1,-0.0636,-0.123,0.0224
PFKFB4,0.431,0.953,-0.164,-0.0462,0.108
ULK3,0.841,0.998,0.0199,-0.168,-0.0473
PIK3R3,0.86,1,-0.0946,-0.14,-0.155
CDK13,0.86,1,-0.0553,-0.166,-0.134
ROR1,0.755,0.989,-0.0775,-0.0711,0.115
FGFR2,0.439,0.954,-0.0256,-0.0744,0.0438

Entries above whose gene name begins with C or c (6):
target gene,"viability z-score, no drug","viability, no drug (fraction)",synergy score with BYL719,synergy score with cetuximab,synergy score with trametinib
CDKN1C,0.0102,0.907,-0.014,0.0285,0.0861
CDKN2B,0.86,1,-0.102,-0.146,0.0099
CDK3,0.86,1,-0.169,0.0672,-0.0286
CIT,-1.49,0.744,0.0129,-0.0653,0.0573
CSNK1A1L,0.156,0.923,-0.115,-0.0603,0.0105
CDK13,0.86,1,-0.0553,-0.166,-0.134

Further reagents:
target gene,"viability z-score, no drug","viability, no drug (fraction)",synergy score with BYL719,synergy score with cetuximab,synergy score with trametinib
EIF2AK2,0.0175,0.908,-0.0769,-0.0997,-0.324
ATRX,0.0659,0.913,-0.228,-0.195,-0.275
BMPR2,-0.3,0.874,0.0537,-0.0463,-0.00431
MAPK15,-1.06,0.791,-0.198,-0.146,-0.0841
WT1,0.86,1,-0.164,-0.166,-0.0653
DGKD,0.86,1,-0.0535,-0.0129,0.0114
PRKAG3,-2.8,0.601,-0.0641,-0.0776,-0.137
IGF2R,0.86,1,-0.183,-0.149,-0.153
MYH10,-0.391,0.864,-0.0866,-0.018,0.0745
CLSPN,-2.42,0.642,-0.142,-0.0855,-0.0701
PRPS1,0.86,1,-0.00925,-0.0569,0.0105
BMPR1B,0.197,0.928,0.00353,-0.182,0.0648
TWF2,-0.106,0.895,0.0683,-0.0693,0.127
STYK1,-0.129,0.892,0.0123,-0.183,-0.00623
SKAP1,0.39,0.949,-0.127,-0.101,-0.0325
MAP3K19,-0.557,0.846,-0.0078,-0.0471,0.0737
SBK1,0.86,1,-0.0133,-0.0641,-0.064
